# Laboratory results from publication PMC7819943, “Rice protein-binding microarrays: a tool to detect cis-acting elements near promoter regions in rice”.
# Amino acid sequences for entries named in this document (tags omitted).
# UniProt Q0JBA9, entry or part of it: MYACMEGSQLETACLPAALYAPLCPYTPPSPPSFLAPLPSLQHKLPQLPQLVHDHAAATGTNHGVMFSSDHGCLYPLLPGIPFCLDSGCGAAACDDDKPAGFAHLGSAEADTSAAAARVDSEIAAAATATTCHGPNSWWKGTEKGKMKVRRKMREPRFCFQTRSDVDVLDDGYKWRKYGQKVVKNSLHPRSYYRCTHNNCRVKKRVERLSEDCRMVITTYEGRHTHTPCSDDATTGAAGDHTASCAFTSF
# This is one part of the list.
# Biological target: OsWRKY34 (Oryza sativa, UniProt Q0JBA9 1-250)
# Test: protein-binding microarray (RPBM); PBS, 2% BSA, 51.3 ng/ul salmon testes DNA, 50 uM zinc acetate, 200 nM TF, 25 C, 1 h; high values mean tight binding
# Conditions: protein: recombinant; tags: N-terminal polyhistidine and DsRed monomer fusion (pET32a); label: CyDye5-dUTP incorporated in the synthesized complementary strand; 3' TTTTT single-stranded linker to array surface; dsDNA, one strand shown
# Outline: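 Binding signal is reported as fluorescence intensity per feature (arbitrary units) from an Axon 4000B scanner. Incubation used 200 nM of each Ni–NTA-purified, N-terminally polyhistidine- and DsRed-fused transcription factor from E. coli BL21-CodonPlus on a double-stranded custom Agilent array for 1 h at 25 °C, with 50 µM zinc acetate in the buffer, followed by washing.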
row,Sequence,binding signal
1,ATTATTTTGTGCATTATTTTGGATTTGTGTTGCGCAGTAGCGGAGTCACCTAGTGCAG,10400 fluorescence intensity (a.u.)
2,TAGCTTGTGCGCGTTGTGTTTTGTGCTCTCCTTTTGTCAGCGGAGTCACCTAGTGCAG,11500 fluorescence intensity (a.u.)
3,CTTGCCGACGCCCGGTGCCTGCCTCGTCCCGGGTATGTATCGGAGTCACCTAGTGCAG,8230 fluorescence intensity (a.u.)
4,TTCCTGTGTTACTTGTATTTTATCTATTGTCTATCTCCTGCGGAGTCACCTAGTGCAG,8980 fluorescence intensity (a.u.)
5,TACAGATCTGTAGCCCGCTGCTTTTCTCTCTCTTCCTTTACGGAGTCACCTAGTGCAG,8100 fluorescence intensity (a.u.)
6,CCCGTGCCCTATTGCGCTTCCTCGCTTCCATTTGTCAACTCGGAGTCACCTAGTGCAG,8920 fluorescence intensity (a.u.)
7,GATTGCCCTCTTTTAAAGTTGCATAGATGTGGTTCTTCCTCGGAGTCACCTAGTGCAG,8090 fluorescence intensity (a.u.)
8,GTGGGTGGTGGTTTTTTTTTCCTTTTTCCTGGTTACGACCCGGAGTCACCTAGTGCAG,23700 fluorescence intensity (a.u.)
9,GACACGTGTCATCATCCTACCATAGTTGCTACTCCCTATTCGGAGTCACCTAGTGCAG,8890 fluorescence intensity (a.u.)
10,AGTGTCTCATCCATTTCACAGTTATTTCGTGCTCACTTATCGGAGTCACCTAGTGCAG,12300 fluorescence intensity (a.u.)
11,TTATCAAATATTCCATCCGTCTTTTTTGATATTTTAATTTCGGAGTCACCTAGTGCAG,9840 fluorescence intensity (a.u.)
12,ATATATATATATATATATATATATATATATATGTAAAATTCGGAGTCACCTAGTGCAG,11700 fluorescence intensity (a.u.)
13,TCCCCAATCCCTAAAATCCCCGTACGCCGCCCGCTTCTCTCGGAGTCACCTAGTGCAG,9000 fluorescence intensity (a.u.)
14,TCTCCAATCTCCATGGCCTCGACACTGTTCTTCGTTTGCACGGAGTCACCTAGTGCAG,9650 fluorescence intensity (a.u.)
15,GCCTCCATCCGGCGAGTCCATTTTTCCCCTTTCCCCTCTCCGGAGTCACCTAGTGCAG,9380 fluorescence intensity (a.u.)
16,GCTCCTTGCCATCCACGCATGCACGCGGTTCCGAGCTCGTCGGAGTCACCTAGTGCAG,8150 fluorescence intensity (a.u.)
17,CATTGCTCTCAAATCTGGCTCCGTTCATGCCATGCATACTCGGAGTCACCTAGTGCAG,9970 fluorescence intensity (a.u.)
18,CTACAAGTCACATATTTCGTCCATTCAAGTTTATTTTTTCCGGAGTCACCTAGTGCAG,9490 fluorescence intensity (a.u.)
19,GGGAGGGGAGGACGGCGACGGCGGCGGCGGCGGGGTGTGGCGGAGTCACCTAGTGCAG,10800 fluorescence intensity (a.u.)
20,CGACATGTGGCAGGGAGGGTGGTGTTTTTCACGCGCGGTCCGGAGTCACCTAGTGCAG,9940 fluorescence intensity (a.u.)
21,ATTTGATTTTCTGTCTTTTCTTCAACTCGATTTTGTTAAACGGAGTCACCTAGTGCAG,10300 fluorescence intensity (a.u.)

row,Sequence,binding signal
1,ACCCTTTTACAACTTTTTCATGTCAACACCTGTACAGAAACGGAGTCACCTAGTGCAG,9280 fluorescence intensity (a.u.)
2,CAAGACTTTCTGCAATTGCCCTGTACTAATTTTGATCTAACGGAGTCACCTAGTGCAG,10300 fluorescence intensity (a.u.)
3,ATCGCTGCCTCCTCCTCTGCTTCGTCGCCGCGGCGGCATCCGGAGTCACCTAGTGCAG,8970 fluorescence intensity (a.u.)
4,GCCCACATGTCATCTCTCCTATCTCTCTTCTCTTTCTATCCGGAGTCACCTAGTGCAG,11300 fluorescence intensity (a.u.)
5,AGGATTCTTTTAAACGTATTTTTGAGGGAGGGGAACAGTCCGGAGTCACCTAGTGCAG,8830 fluorescence intensity (a.u.)
6,GATCTTATTGTGGGCGGCTGGCTGACTGTTGCTGTTGTATCGGAGTCACCTAGTGCAG,9690 fluorescence intensity (a.u.)
7,CATACATTGCCTCGTTTTTCTCTATAGACTATCTCTAAGTCGGAGTCACCTAGTGCAG,8460 fluorescence intensity (a.u.)
8,ATCTTGCATCATTCATGTCTTGTCCCCTTAAACTTTTTTCCGGAGTCACCTAGTGCAG,10100 fluorescence intensity (a.u.)
9,GCCATCTTGTTCTTGTCTTTGATTCTGTTCTTTGAGTTCACGGAGTCACCTAGTGCAG,15300 fluorescence intensity (a.u.)
10,CCGCTCCAAATCCAAATCTCACCTTGAATTCTTCTCCTTCCGGAGTCACCTAGTGCAG,8320 fluorescence intensity (a.u.)
11,GTCCTACGCATGGCCACTCTGCTCATATTTGTTTGGCTCCCGGAGTCACCTAGTGCAG,9840 fluorescence intensity (a.u.)
12,CACACCCTACACGCACCCCATAATATGGGCCTTACAATCTCGGAGTCACCTAGTGCAG,8600 fluorescence intensity (a.u.)
13,TCAGTTTTGTTCTAGCCACACTTTGTCACCATTTGCCAATCGGAGTCACCTAGTGCAG,10900 fluorescence intensity (a.u.)
14,AAATCATCCGGATTAATCTGTACCGTCCATCCGCGCGCAACGGAGTCACCTAGTGCAG,11300 fluorescence intensity (a.u.)
15,TGTTACCAAACGGATTTTGCCTAATTTCATCCCGCGACTACGGAGTCACCTAGTGCAG,8770 fluorescence intensity (a.u.)
16,TTCTCTATCATAATGGCAGCACTACCATTACAAGCACTGACGGAGTCACCTAGTGCAG,8120 fluorescence intensity (a.u.)
17,ATATATATATATATATATATGGCAACGTAATCCTTCTGTTCGGAGTCACCTAGTGCAG,9540 fluorescence intensity (a.u.)
18,GCCTCGAGCGCTATCCCCGCCACCGCTTGCCGCGTTATTCCGGAGTCACCTAGTGCAG,14700 fluorescence intensity (a.u.)
19,ACTTTTACCTGGGTTGCCAGTGTTATATATGCTTTGTTGACGGAGTCACCTAGTGCAG,10800 fluorescence intensity (a.u.)
20,GCATTACCAGATCACGCCGGCCAAGCCAGCCACGGTCACCCGGAGTCACCTAGTGCAG,9220 fluorescence intensity (a.u.)
21,ATGGAAGTATGGGTTATTCGTGCCATGCTGTTCTTTCGAACGGAGTCACCTAGTGCAG,8390 fluorescence intensity (a.u.)

# Part of the list above, with tabs:
row	Sequence	binding signal
16	GCTCCTTGCCATCCACGCATGCACGCGGTTCCGAGCTCGTCGGAGTCACCTAGTGCAG	8150 fluorescence intensity (a.u.)
17	ATATATATATATATATATATGGCAACGTAATCCTTCTGTTCGGAGTCACCTAGTGCAG	9540 fluorescence intensity (a.u.)

# Taken from the results shown (three entries):
row,Sequence,binding signal
12,CACACCCTACACGCACCCCATAATATGGGCCTTACAATCTCGGAGTCACCTAGTGCAG,8600 fluorescence intensity (a.u.)
13,TCAGTTTTGTTCTAGCCACACTTTGTCACCATTTGCCAATCGGAGTCACCTAGTGCAG,10900 fluorescence intensity (a.u.)
14,AAATCATCCGGATTAATCTGTACCGTCCATCCGCGCGCAACGGAGTCACCTAGTGCAG,11300 fluorescence intensity (a.u.)

# The listing continues.

row,Sequence,binding signal
1,GCCGTCTTTGCTTGATAGTCTTCGCCATGGGGACTTTGTCCGGAGTCACCTAGTGCAG,8210 fluorescence intensity (a.u.)
2,CTTTATCGATGGATGCTTTGGGCTCCACCATTATTTTTTTCGGAGTCACCTAGTGCAG,9140 fluorescence intensity (a.u.)
3,GATGCTCTTTCTATATGGTAATATATTCCACTCTAATCTGCGGAGTCACCTAGTGCAG,10300 fluorescence intensity (a.u.)
4,AGGCCGCGCTCCTCACCCGCCACGCGCTCCACTCCAACTGCGGAGTCACCTAGTGCAG,9340 fluorescence intensity (a.u.)
5,ACACGTGCCTCGTCCCACCTGTCCGCGTCACCCGTCTCTCCGGAGTCACCTAGTGCAG,15400 fluorescence intensity (a.u.)
6,TATTCACGTTCAACGTTTGATCGTTCGTCTTATTTGAAATCGGAGTCACCTAGTGCAG,10100 fluorescence intensity (a.u.)
7,TCCTCTTCTTCTTCTTCTTCTTCTCGTGGGTGCAAGAAGCCGGAGTCACCTAGTGCAG,8380 fluorescence intensity (a.u.)
8,CACGGCCTCCACTTTCTGCTTCGCCTCATCCAGTCCGCTTCGGAGTCACCTAGTGCAG,11000 fluorescence intensity (a.u.)
9,TTCAGGGACATGTTGTATCTGGTTTTGGGGTTCAAGGATGCGGAGTCACCTAGTGCAG,9220 fluorescence intensity (a.u.)
10,GTGCTTTTTCTTGCTTTTTCTCGTGATGTTGGAGTGGTGTCGGAGTCACCTAGTGCAG,13000 fluorescence intensity (a.u.)
11,GCTTATTTTGGTGGTACAGATGCAGTTTCATTTATTAAAACGGAGTCACCTAGTGCAG,12900 fluorescence intensity (a.u.)
12,CTGGCCGTCATCTTCTTCTTCTCCGATCTCCTCCTCCTCCCGGAGTCACCTAGTGCAG,9220 fluorescence intensity (a.u.)
13,GCTCACTTCCCTGTGGCTATGTGTTGCTGACTGTAAATATCGGAGTCACCTAGTGCAG,11100 fluorescence intensity (a.u.)
14,ATCATCACTCCATTGCCGCTGTATTTGTTGTCATCGTTTTCGGAGTCACCTAGTGCAG,11200 fluorescence intensity (a.u.)
15,GACTTACCTAACATGCATTTGATTTCTCCTTAATTCATTACGGAGTCACCTAGTGCAG,9210 fluorescence intensity (a.u.)
16,ATAGTAAAATTATTTTTTGGTCATGTTCTTTTTATAGGGGCGGAGTCACCTAGTGCAG,12600 fluorescence intensity (a.u.)
17,GGATTTGGATTTGCTTGGTAACCCAGCTGAACTCTCTGAACGGAGTCACCTAGTGCAG,8390 fluorescence intensity (a.u.)
18,TCAGGATCCTCCTTTAGTTTTCTATCATCATCCTCTATTCCGGAGTCACCTAGTGCAG,9010 fluorescence intensity (a.u.)
19,CTCTCACCATGCAAGATTTCCTTAGATTTGAGTTGAGTCACGGAGTCACCTAGTGCAG,9150 fluorescence intensity (a.u.)
20,GCCGTGGTGGTGTGGGGATCGTGTTGTGGCGGCGGATTGGCGGAGTCACCTAGTGCAG,8690 fluorescence intensity (a.u.)
21,TATTCTCGATCCATTTATCTCCTATCTGTTACTTTGGTATCGGAGTCACCTAGTGCAG,10700 fluorescence intensity (a.u.)

row,Sequence,binding signal
1,CTCCTCGTCTCTCGCCTTCGCCACCTTCGAATCGAAACTACGGAGTCACCTAGTGCAG,10500 fluorescence intensity (a.u.)
2,GGTTATTTATTTTTATTGGTTTCCCCATTACTGTTGACAGCGGAGTCACCTAGTGCAG,8360 fluorescence intensity (a.u.)
3,CTCTCTTTACATTCTCCACATGTAGTACTAGCTAGCTAACCGGAGTCACCTAGTGCAG,8380 fluorescence intensity (a.u.)
4,ACTCTTCCTGCCCGCCGCCGCCGCCGCGACCTCGCCGTCGCGGAGTCACCTAGTGCAG,9840 fluorescence intensity (a.u.)
5,CCCCGTAGTCGGCATCCGTGCGGCCTCAGCACACCTCCTCCGGAGTCACCTAGTGCAG,8210 fluorescence intensity (a.u.)
6,ATATTTTAGATGCTAACTGTTAATCAAGTTCTTTTATACACGGAGTCACCTAGTGCAG,9170 fluorescence intensity (a.u.)
7,GTGGAGACGTGGGACGTCGCGCGGGTATCGGGTGGGGATGCGGAGTCACCTAGTGCAG,8580 fluorescence intensity (a.u.)
8,TCCTCTTCATGCGATGCGAGCTCTCCTCTCGTTTCCTCTCCGGAGTCACCTAGTGCAG,10000 fluorescence intensity (a.u.)
9,CCCGTGAACACATCCTCCGCCGCCGCCGCCGCCGATCTCCCGGAGTCACCTAGTGCAG,9360 fluorescence intensity (a.u.)
10,GGCTCCTCGCGTAGTGCCCTTGCAGCTTCACCTCATCCACCGGAGTCACCTAGTGCAG,8310 fluorescence intensity (a.u.)
11,AGTGTATCTTGTCAGTATTAATTCCAGTCAGCCATGAATTCGGAGTCACCTAGTGCAG,8720 fluorescence intensity (a.u.)
12,CTCGCCGATAAAAAGGACACCGAGGCTCGGTGAGGTTGACCGGAGTCACCTAGTGCAG,8590 fluorescence intensity (a.u.)
13,TGGTTGTCTGGTCATTCGTGCTTTCCTTTTTCCTTTGTCTCGGAGTCACCTAGTGCAG,11900 fluorescence intensity (a.u.)
14,CCTGAAGGAGTTTGGGCTCGCCGCCTCCACCTCATCGTCTCGGAGTCACCTAGTGCAG,8720 fluorescence intensity (a.u.)
15,CCCTATCCCCTCATCTCACTGCAGCTTTCCACTATACTACCGGAGTCACCTAGTGCAG,8440 fluorescence intensity (a.u.)
16,CAACTGTTCTCTTTTATTGGTTCAACCGGATTATATCCGGCGGAGTCACCTAGTGCAG,8490 fluorescence intensity (a.u.)
17,TTTCATTTGCAAATCCCATAGTTCCATTCCAATCCCATGACGGAGTCACCTAGTGCAG,8930 fluorescence intensity (a.u.)
18,GTAAATTTTTCCTTGCCTTATCCTACACCCAGGCCTAGATCGGAGTCACCTAGTGCAG,8400 fluorescence intensity (a.u.)
19,CCGTCCGTCTTATTTGAATTTTTTTAAAAATTAGTACTTTCGGAGTCACCTAGTGCAG,8970 fluorescence intensity (a.u.)
20,CTATCTCTGTTTACCTTTTCTCATAGATTTTTATTCGCGCCGGAGTCACCTAGTGCAG,9250 fluorescence intensity (a.u.)
21,TCTTGGGCTGGGTCTGCTGGGATTTATGTTTACAATTGTTCGGAGTCACCTAGTGCAG,14200 fluorescence intensity (a.u.)
